# Screening data, single-dose tests

The values are deposited in ChEMBL (CHEMBL3988442, “University of Dundee, Small-Polar-MMV Screening Library” (2021)).

The filed quantity is “Percent Effect” (%).
The record does not define 0% and 100%; most values in the screen are far below 50% and negative numbers occur (in some assays of this library far below -100).
Compounds were drawn at random from those tested, without regard to their results.

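Whole-cell growth test on Mycobacterium tuberculosis, read after 3 days in glucose-containing 7H9 medium; the read-out is not stated. Concentration: 500 µM. Higher reads as more growth inhibition (inferred: compounds with an IC50 in retests scored well above the rest). Size under these conditions: about 18,000 compounds, about 1,400 of them at 50% or above in at least one test.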

SMILES	Percent Effect
OCCCN1CCCc2c(F)cccc21	49.07
CSCCC(=O)NC(C1CCNCC1)[C@H]1C[C@H](O)C1 (stereo not given in full)	7.099
COc1cccc(C(=O)N(C)C2CCN(C)CC2)c1	-0.1716
CCCn1cnnc1CNC	9.968
O=C(CSc1ncnn1-c1ccccc1)N1CCCC1	59.16
CC(C)Cc1cc(CNCC2(O)CCCNC2)on1 (stereo not given)	17.13
COC(=O)NC(C)C(=O)NCC1(Cn2ccnc2)CC1 (stereo not given)	7.65
NCC1CC12CCS(=O)(=O)CC2 (stereo not given)	3.259
CNS(=O)(=O)C1CCCN(c2ncc(Br)cc2C)C1 (stereo not given)	2.266
CC1=CC[C@@H]2CN(C(=O)CCn3nnnc3C)C[C@@H]2C1	-3.07
C=C(Br)CN1CCN(C(=O)CN2C(=O)CCC2=O)CC1	2.497
CS(=O)(=O)NC1CCN(CCOc2ccccc2)CC1	31.21
Cc1ccc(NC(=O)C(C)N2CCCN(C)CC2)cc1 (stereo not given)	19.74
CC(C)C(N)C1(CO)CCCC1 (stereo not given)	-6.086
COCCNC(=O)CN(C)CC(=O)N1CCOCC1	-9.607
N#Cc1cc(N2CCNCC2)ccn1	13.4
CCN1CCC(C(=O)NCc2cc(C)nn2C)CC1	2.416
Cc1ccc(C(=O)NCCCNS(C)(=O)=O)s1	36.62
CCN1CCN(CC(O)COc2ccccc2)CC1 (stereo not given)	0.5184
CC1CN(C)CCN1CC(=O)NCc1cccs1 (stereo not given)	8.288
Cc1c2c(nc3ccccc13)CCNC2=O	30.01
COc1cc(S(=O)(=O)NCc2ccnn2C)ccc1F	8.357
CC(O)CCc1ccc(O)cc1 (stereo not given)	11.18
O=C(Nc1ccc2oc(=O)[nH]c2c1)C1CC1	-8.036
N#Cc1ccc(S(=O)(=O)NCC[C@H]2CCCN2)c(Cl)c1	24.52
Oc1ccc(Cl)cn1	5.564
Cc1nc(C)c(CC(=O)Nc2nccs2)c(=O)[nH]1	3.633
Cc1c(Cl)cnn1C(C)C(N)=O (stereo not given)	3.979
CNC(=O)Cc1noc(CCc2cccc(F)c2)n1	-3.78
Cn1cc(NC(=O)CSc2nccn2C)cn1	-17.65
Cc1cc2n(n1)C(O)CNC2=O (stereo not given)	5.335
Cc1noc(C)c1CN1CCCC(CS(C)(=O)=O)C1 (stereo not given)	6.745
CCOc1cc(C(=O)NC2=NCCS2)ccc1OC	8.904
O=C(NCC1CC1)c1cn(CCC2CCCCN2)nn1 (stereo not given)	-0.9154
CN(CC1CCOCC1)C(=O)NCc1ccco1	54.87
CCN(CCn1cccn1)C(=O)c1cc(C)nc(N)n1	-5.076
Cc1cccc(N(C)C(=O)CCC(=O)OC(C)(C)C)n1	26.2
NCCC1(O)CNC1	-21.56
NC(=O)c1cc(N)nc2ccccc12	-11.86
OC[C@@H]1CN(CC2CC2)C[C@H]1c1nc(C2CC2)no1	3.912
OC1CCc2[nH]ncc2C1 (stereo not given)	-10.8
NC(=O)CC1CNC1	-0.7518
NCCc1cc(-c2ccncc2)[nH]n1	-3.32
CCCc1nnc(NC(=O)C2CC2)s1	-2.174
Cc1noc(C(C)C)c1C(=O)Nc1ccccn1	-0.5016
CC(C)n1cccc1C(=O)N1C[C@H](C2CC2)[C@@H](N)C1	15.27
COc1ccc(CN)cn1	-2.905
CCC(C)(CC)NC(=O)Nc1cnn(CCOC)c1	9.035
CC(C(=O)NC(C)(C)CO)N1CCSCC1 (stereo not given)	9.703
OCCOCCSc1n[nH]c(-c2cc(F)cc(F)c2)n1	51.14
CN1CCC(NCCCN2CCOCC2)CC1	-5.562
CCN(Cc1nnc(C)o1)C1CNC[C@H]1O (stereo not given in full)	1.709
CC(C)CC(C)NCc1ccc(C(N)=O)o1 (stereo not given)	11.14
CN1CCCN(C(=O)NCCCNS(C)(=O)=O)CC1	1.2
Cc1cccc(CNC(C)(CO)CO)c1C	3.347
Cc1nn(CCO)c(C)c1CNCCCNS(C)(=O)=O	4.454
CCC(O)(CC)CNc1nnnn1-c1ccc(C)cc1	32.89
Cc1cc(NC(=O)CCN(C)C(C)CO)no1 (stereo not given)	18.29
Cc1nc(C)c(CC(=O)NCc2snnc2C)c(=O)[nH]1	-0.6724
NC(=O)C1CNc2ccccc21 (stereo not given)	1.623
CCc1noc(C)c1C(=O)Nc1cccnc1	7.601
O[C@@]12CCNC[C@@H]1C2	14.52
Cc1ccc(F)cc1NC(=O)C(C)Nc1cnn(C)c1 (stereo not given)	4.123
FC(F)CC1COCCN1 (stereo not given)	-1
CCN(Cc1ccc(Cl)s1)C(=O)COC	24.31
CNS(=O)(=O)CC1CCCN1C(=O)c1sccc1C (stereo not given)	13.02
O=C(Nc1cccc2c1OCCO2)NC1CC1	22.01
N#Cc1ccccc1CSc1nnnn1C1CC1	44.02
CCC(C(=O)N1CCC(O)CC1)c1ccccc1 (stereo not given)	17.06
CCc1ccc(CNC(C)(CO)CO)cc1	5.92
CC(C)(C)OC(=O)N[C@H]1CCNC1	6.168
OC1CCCN(Cc2cccc(F)c2F)C1 (stereo not given)	27.37
COc1cccc(CNC(=O)Nc2nccs2)c1O	44.99
CC(C(=O)NCc1ccnc(N(C)C)c1)S(C)(=O)=O (stereo not given)	16.2
COC(=O)c1snc(C(=O)NCc2ccccc2)c1N	40.67
NC1CCCN(c2ccccc2)C1 (stereo not given)	43.84
CN(C)CCNC(=O)c1cccs1	9.697

Repeated from the top, 10 entries:

{"smiles": "OCCCN1CCCc2c(F)cccc21", "Percent Effect": 49.07}
{"smiles": "CSCCC(=O)NC(C1CCNCC1)[C@H]1C[C@H](O)C1", "stereo": "stereo not given in full", "Percent Effect": 7.099}
{"smiles": "COc1cccc(C(=O)N(C)C2CCN(C)CC2)c1", "Percent Effect": -0.1716}
{"smiles": "CCCn1cnnc1CNC", "Percent Effect": 9.968}
{"smiles": "O=C(CSc1ncnn1-c1ccccc1)N1CCCC1", "Percent Effect": 59.16}
{"smiles": "CC(C)Cc1cc(CNCC2(O)CCCNC2)on1", "stereo": "stereo not given", "Percent Effect": 17.13}
{"smiles": "COC(=O)NC(C)C(=O)NCC1(Cn2ccnc2)CC1", "stereo": "stereo not given", "Percent Effect": 7.65}
{"smiles": "NCC1CC12CCS(=O)(=O)CC2", "stereo": "stereo not given", "Percent Effect": 3.259}
{"smiles": "CNS(=O)(=O)C1CCCN(c2ncc(Br)cc2C)C1", "stereo": "stereo not given", "Percent Effect": 2.266}
{"smiles": "CC1=CC[C@@H]2CN(C(=O)CCn3nnnc3C)C[C@@H]2C1", "Percent Effect": -3.07}